Among the data in paper PMC4465127 are binding values, retold here.

Results are given in words; binding and its absence hold for the method and conditions named. Binding can be weak; no strength is given.

The target of assay [1] is T1, sLET-23ΔIV/V (LET-23 extracellular region with domains IV and V deleted) (C. elegans) (UniProt P24348).
T1 sequence: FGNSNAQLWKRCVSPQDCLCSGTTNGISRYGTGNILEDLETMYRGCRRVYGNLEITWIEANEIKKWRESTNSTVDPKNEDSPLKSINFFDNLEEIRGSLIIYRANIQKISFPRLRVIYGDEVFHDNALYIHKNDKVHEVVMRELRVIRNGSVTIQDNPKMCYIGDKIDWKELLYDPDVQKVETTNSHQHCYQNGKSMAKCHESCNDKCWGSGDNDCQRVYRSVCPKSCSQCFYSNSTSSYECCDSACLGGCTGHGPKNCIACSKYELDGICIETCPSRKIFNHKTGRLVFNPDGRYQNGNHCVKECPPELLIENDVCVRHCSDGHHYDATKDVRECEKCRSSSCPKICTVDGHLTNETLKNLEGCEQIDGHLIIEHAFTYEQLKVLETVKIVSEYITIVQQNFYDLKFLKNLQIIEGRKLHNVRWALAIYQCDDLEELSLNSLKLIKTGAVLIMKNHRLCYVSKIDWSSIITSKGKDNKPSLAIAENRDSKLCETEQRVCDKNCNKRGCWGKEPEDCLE
Briefly: AUC; sedimentation equilibrium with 50-70 μM LIN-3^EGF added; 1 to 8 μM receptor, 10 mM Hepes pH 8.0, 150 mM NaCl, 20 °C, three speeds; dimer to monomers; both purified.

In assay [2] the target is T2, sLET-23ΔV (LET-23 extracellular region with domain V deleted) (C. elegans) (UniProt P24348).
T2 sequence: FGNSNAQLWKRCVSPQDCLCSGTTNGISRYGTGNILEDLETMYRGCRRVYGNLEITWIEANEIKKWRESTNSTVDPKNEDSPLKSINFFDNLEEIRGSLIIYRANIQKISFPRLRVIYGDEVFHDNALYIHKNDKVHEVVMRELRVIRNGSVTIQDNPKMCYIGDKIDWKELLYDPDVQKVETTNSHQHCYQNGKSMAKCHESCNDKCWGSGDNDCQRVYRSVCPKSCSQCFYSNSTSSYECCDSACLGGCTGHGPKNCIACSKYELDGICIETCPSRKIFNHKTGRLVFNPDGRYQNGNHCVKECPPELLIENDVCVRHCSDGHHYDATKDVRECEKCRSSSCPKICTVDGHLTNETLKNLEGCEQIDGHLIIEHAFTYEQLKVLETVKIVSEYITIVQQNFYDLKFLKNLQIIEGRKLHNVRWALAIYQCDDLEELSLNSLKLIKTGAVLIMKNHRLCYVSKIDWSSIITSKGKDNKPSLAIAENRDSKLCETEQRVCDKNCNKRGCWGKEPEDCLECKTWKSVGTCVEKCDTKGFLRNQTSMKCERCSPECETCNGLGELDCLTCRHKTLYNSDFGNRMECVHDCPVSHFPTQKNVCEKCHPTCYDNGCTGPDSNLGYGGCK
The assay is described as follows: SAXS; synchrotron (CHESS F1), 42 μM sLET-23ΔV with 100 μM LIN-3^EGF, pH 8.0, 5% glycerol; both purified.

Consider “LIN-3^EGF (the purified EGF domain from LIN-3) (C. elegans) (ligand)”, for which the binding result in assay [1] and in assay [2] was “binds” each time.
